Results are given in words; binding and its absence hold for the method and conditions named. For part of these data: A result given as binding can be weak or reduced; the word gives no strength. Where a sequence is shown, tags or fusion partners need not be part of it. For part of these data: In cells and extracts the contact can be indirect.
Experiments:
[1] = molecular target: GST-Yrt (Yurt, isoform PA) (Drosophila); assay: pull-down; GST-tagged proteins as baits, MBP-tagged Tctp as prey; 10 μg/mL of each; PDB buffer (20 mM Tris-HCl pH 7.5, 150 mM NaCl, 0.5 mM EDTA, 10% glycerol, 0.1% Triton X-100, 1 mM DTT); both purified
[2] = molecular target: GST-Dlg (Discs-large, isoform PG) (Drosophila); assay: as above
[3] = molecular target: GST-Crb^intra (intracellular domain of Crumbs) (Drosophila); assay: as above
[4] = molecular target: GST-Yrt FERM (FERM region of Yurt) (Drosophila); assay: as above
[5] = molecular target: GST-Yrt VR (variable region of Yurt) (Drosophila); assay: as above
[6] = molecular target: GST-Cora (Coracle, isoform PC) (Drosophila); assay: as above
[7] = molecular target: GST-Yrt FA (FERM-adjacent region of Yurt) (Drosophila); assay: as above
[8] = molecular target: Flag-Cora (Drosophila); assay: co-IP; S2 cells transiently transfected with Flag- and Myc-tagged constructs, lysed 24 h after transfection; lysis buffer 20 mM HEPES pH 7.5, 100 mM KCl, 2.5 mM EDTA, 5% glycerol, 0.05% Triton X-100; immunoprecipitation at 4°C overnight
[9] = molecular target: Flag-Yrt (Drosophila); assay: as above

Binder	binding [1]	binding [2]	binding [3]	binding [4]	binding [5]	binding [6]	binding [7]	binding [8]	binding [9]
MBP-Tctp fusion protein (Drosophila translationally controlled tumor protein) (protein, UniProt Q9VGS2 1-172) MKIYKDIITGDEMFADTYKMKLVDDVIYEVYGKLITRQGDDIKLEGANASAEEADEGTDITSESGVDVVLNHRLTECFAFGDKKSYTLYLKDYMKKVLAKLEEKSPDQVDIFKTNMNKAMKDILGRFKELQFFTGESMDCDGMVALVEYREINGDSVPVLMFFKHGLEEEKC	binds	no binding	no binding	binds	no binding	binds	binds	–	–
Myc-Tctp (protein, UniProt Q9VGS2 1-172) MKIYKDIITGDEMFADTYKMKLVDDVIYEVYGKLITRQGDDIKLEGANASAEEADEGTDITSESGVDVVLNHRLTECFAFGDKKSYTLYLKDYMKKVLAKLEEKSPDQVDIFKTNMNKAMKDILGRFKELQFFTGESMDCDGMVALVEYREINGDSVPVLMFFKHGLEEEKC	–	–	–	–	–	–	–	binds	binds
